Among the data in patent publication US20020058798A1 (YEDA RESEARCH AND DEVELOPMENT, published 2002) are binding values, retold here.

Sequences of proteins named here, by UniProt entry; tags and fusion partners are left off. A change or cut given only in a name is not applied to a line headed by its entry.
UniProt Q13158: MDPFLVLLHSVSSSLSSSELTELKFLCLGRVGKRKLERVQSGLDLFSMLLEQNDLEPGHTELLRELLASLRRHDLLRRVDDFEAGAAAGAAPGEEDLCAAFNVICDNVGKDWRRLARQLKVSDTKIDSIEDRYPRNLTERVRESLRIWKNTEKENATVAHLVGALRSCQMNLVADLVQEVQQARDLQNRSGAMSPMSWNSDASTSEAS

The target in experiment [1] is MORT-1 fragment, residues 130-245 (human) (UniProt Q13158). As to the kind of experiment: yeast two-hybrid beta-galactosidase filter assay (SFY526); row = Gal4 DNA-binding-domain hybrid, column = activation-domain hybrid; + = strong color within 90 min.
The target is the same in experiment [2]. Description: yeast two-hybrid beta-galactosidase filter assay (SFY526); row = Gal4 DNA-binding-domain hybrid, column = activation-domain hybrid; ++ = strong color within 30 min.

No constants are given. Whether binding was seen depends on the method and setting. Some entries that bind do so weakly or less than the wild type.

B1: Mouse Fas-IC 197-306 (receptor, UniProt P25446 218-327, looked up)
chain: NLSLSKYIPRIAEDMTIQEAKKFARENNIKEGKIDEIMHDSIQDTAEQKVQLLLCWYQSHGKSDAYQDLIKGLKKAECRRTLDKFQDMVQKDLGKSTPDTGNENEGQCLE
On to B1, for which the binding entry in experiment [1] was “binds”.

B2: Mouse Fas-IC, full (receptor, UniProt P25446 187-327, looked up)
chain: RKYRKRKCWKRRQDDPESRTSSRETIPMNASNLSLSKYIPRIAEDMTIQEAKKFARENNIKEGKIDEIMHDSIQDTAEQKVQLLLCWYQSHGKSDAYQDLIKGLKKAECRRTLDKFQDMVQKDLGKSTPDTGNENEGQCLE
Consider B2, for which the binding entry in experiment [2] is recorded as “binds”.
